This assay has as its target endogenous JUN (human (endogenous in breast cancer cells)) (UniProt P05412). The experiment in a line: proximity ligation; in situ PLA (Duolink) on methanol-fixed cultured cells with pairs of primary antibodies; cells treated with 1-10 uM compounds or DMSO for 16 hours.

By UniProt entry, the sequences of proteins in these tests, tags left out.
UniProt P05412: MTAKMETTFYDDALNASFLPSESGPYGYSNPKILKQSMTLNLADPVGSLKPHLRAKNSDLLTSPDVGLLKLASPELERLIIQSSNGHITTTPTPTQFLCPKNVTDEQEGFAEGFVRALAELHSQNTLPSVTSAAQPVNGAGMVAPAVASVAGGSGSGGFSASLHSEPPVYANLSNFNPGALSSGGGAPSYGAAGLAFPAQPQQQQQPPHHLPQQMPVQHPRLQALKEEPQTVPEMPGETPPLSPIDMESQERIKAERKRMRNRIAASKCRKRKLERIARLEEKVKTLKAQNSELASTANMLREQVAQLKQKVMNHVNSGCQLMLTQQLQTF

Our source for the binding values is publication PMC6030159 (Scientific Reports, 2018).

These are yes or no findings as the source states them, for the method shown. Binding seen in cells or lysates may run through a third protein. Some binding calls cover weakened binding; strength is not graded here.

B1: endogenous FRA1 (protein, UniProt P15407 1-271)
chain: MFRDFGEPGPSSGNGGGYGGPAQPPAAAQAAQQKFHLVPSINTMSGSQELQWMVQPHFLGPSSYPRPLTYPQYSPPQPRPGVIRALGPPPGVRRRPCEQISPEEEERRRVRRERNKLAAAKCRNRRKELTDFLQAETDKLEDEKSGLQREIEELQKQKERLELVLEAHRPICKIPEGAKEGDTGSTSGTSSPPAPCRPVPCISLSPGPVLEPEALHTPTLMTTPSLTPFTPSLVFTYPSTPEPCASAHRKSSSSSGDPSSDPLGSPTLLAL
Take B1: the binding result is on record as “binds”.
